Drawing on PMC12408839, this text covers binding for one substance.

The chains behind the UniProt entries cited, without tags or fusion partners.
UniProt Q9Z351: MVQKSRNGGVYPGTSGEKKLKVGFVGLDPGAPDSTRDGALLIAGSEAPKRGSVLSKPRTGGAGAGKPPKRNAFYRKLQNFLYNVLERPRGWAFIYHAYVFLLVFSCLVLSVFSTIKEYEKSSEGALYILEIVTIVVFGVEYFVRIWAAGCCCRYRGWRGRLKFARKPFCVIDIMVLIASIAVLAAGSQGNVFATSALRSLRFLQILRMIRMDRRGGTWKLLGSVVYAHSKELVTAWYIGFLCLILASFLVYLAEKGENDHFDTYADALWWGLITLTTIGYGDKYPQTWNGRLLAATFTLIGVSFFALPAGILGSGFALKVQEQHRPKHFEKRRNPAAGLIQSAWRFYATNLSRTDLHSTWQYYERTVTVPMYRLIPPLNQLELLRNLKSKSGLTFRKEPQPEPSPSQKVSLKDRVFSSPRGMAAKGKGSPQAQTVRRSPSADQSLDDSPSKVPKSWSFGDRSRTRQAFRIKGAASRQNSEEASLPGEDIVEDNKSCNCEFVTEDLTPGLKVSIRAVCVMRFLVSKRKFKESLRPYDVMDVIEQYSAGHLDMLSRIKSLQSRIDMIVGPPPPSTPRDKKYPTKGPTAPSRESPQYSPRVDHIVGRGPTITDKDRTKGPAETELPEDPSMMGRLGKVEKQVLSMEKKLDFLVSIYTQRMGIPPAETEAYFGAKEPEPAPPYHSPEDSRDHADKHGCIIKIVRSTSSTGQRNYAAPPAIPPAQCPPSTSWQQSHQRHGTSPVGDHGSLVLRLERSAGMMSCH

The target of the experiment is T1, neuronal pentraxin 1 (NPTX1) (mouse (endogenous in dentate gyrus tissue)) (UniProt Q62443).
T1 sequence: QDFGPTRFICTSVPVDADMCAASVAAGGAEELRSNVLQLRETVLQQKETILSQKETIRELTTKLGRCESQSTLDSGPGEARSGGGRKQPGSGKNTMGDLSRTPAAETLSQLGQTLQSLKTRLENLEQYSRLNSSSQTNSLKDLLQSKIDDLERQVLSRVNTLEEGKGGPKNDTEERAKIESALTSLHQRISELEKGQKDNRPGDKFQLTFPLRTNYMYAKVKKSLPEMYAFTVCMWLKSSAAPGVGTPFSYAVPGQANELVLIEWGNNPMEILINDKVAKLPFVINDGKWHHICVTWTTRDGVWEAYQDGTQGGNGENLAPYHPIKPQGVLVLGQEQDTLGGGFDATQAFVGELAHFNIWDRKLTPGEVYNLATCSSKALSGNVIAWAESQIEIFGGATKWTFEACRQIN
As to the kind of experiment: co-IP; DG tissue of C57BL/6J male mice (young; also young against aged mice) homogenised in RIPA buffer with protease and phosphatase inhibitors; 3 ug anti-NPTX1 antibody or control IgG, 4 h at 4 °C, Protein A/G magnetic beads overnight at 4 °C; blot with anti-KCNQ2 and anti-NPTX1.

These are yes or no findings as the source states them, for the method shown. In cells and extracts the contact can be indirect. Some results given as binding are weak or reduced against the parent protein; the word gives no strength.

For the substance “KCNQ2 (Kv7.2) (from UniProt Q9Z351 1-759)”, the binding result is “binds”.
